Source: paper PMC5688124

Protein sequences, listed by entry. Tags and fused reporters are not part of them. Lines headed by an entry give the natural chain unless they say otherwise; changes in a name come on top.
UniProt P51114: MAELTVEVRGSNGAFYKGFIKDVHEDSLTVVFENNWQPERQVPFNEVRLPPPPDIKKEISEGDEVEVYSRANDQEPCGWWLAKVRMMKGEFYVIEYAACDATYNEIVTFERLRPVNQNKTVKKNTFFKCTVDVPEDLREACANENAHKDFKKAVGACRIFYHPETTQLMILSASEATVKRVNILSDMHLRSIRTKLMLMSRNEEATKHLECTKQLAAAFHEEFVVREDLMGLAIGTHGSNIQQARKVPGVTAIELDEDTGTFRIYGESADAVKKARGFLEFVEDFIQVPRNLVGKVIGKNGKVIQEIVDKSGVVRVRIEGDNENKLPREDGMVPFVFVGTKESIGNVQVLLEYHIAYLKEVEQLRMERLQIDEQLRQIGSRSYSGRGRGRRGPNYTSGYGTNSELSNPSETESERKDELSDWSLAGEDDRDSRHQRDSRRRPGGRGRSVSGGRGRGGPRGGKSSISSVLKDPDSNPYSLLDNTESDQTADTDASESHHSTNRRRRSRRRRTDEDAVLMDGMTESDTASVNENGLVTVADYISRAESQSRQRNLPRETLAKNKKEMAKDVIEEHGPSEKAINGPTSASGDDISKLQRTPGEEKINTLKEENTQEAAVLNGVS
UniProt Q9UKT5: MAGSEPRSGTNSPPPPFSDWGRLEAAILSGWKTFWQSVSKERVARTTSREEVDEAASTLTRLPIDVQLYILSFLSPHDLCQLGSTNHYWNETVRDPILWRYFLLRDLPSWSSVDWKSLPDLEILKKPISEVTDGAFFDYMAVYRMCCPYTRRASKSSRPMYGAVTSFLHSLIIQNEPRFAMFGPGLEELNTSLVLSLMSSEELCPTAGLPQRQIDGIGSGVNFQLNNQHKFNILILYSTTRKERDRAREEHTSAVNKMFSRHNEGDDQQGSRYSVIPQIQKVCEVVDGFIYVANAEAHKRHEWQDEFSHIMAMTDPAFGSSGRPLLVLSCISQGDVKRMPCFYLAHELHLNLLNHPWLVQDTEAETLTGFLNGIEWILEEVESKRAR

Target: myc-tagged Fxr1 (UniProt P51114)
Assay: co-IP; HEK293T transiently transfected, lysed 24 h later in Tween 20 buffer; Flag affinity gel, anti-c-Myc agarose affinity gel or anti-His affinity resin; immunoblot

binding	Substance
binds	Fbxo4 C341W/A354R (from UniProt Q9UKT5)
binds	Flag-Fbxo4ΔF (from UniProt Q9UKT5)

These are yes or no findings as the source states them, for the method shown. In cells and extracts the contact can be indirect. Binding calls can cover weak binding; strength is not graded here.
